Laboratory results from patent US7547728B2, “Treating muscle wasting with selective androgen receptor modulators” (priority 2001, dated 2009).

Test system: MHC II b mRNA
Assay: MHC IIb mRNA expression by RT-PCR in masseter muscle of intact female rats
Assay type: in vivo, rat
Details: for 18 S band intensity (average intensity of all pixels in the spot): internal control 18S
Method: Rat muscle tissue was harvested in 5 volumes of RNA later solution (Ambion, cat.# 7020) and stored at 4° C. until used for RNA isolation. Total RNA was isolated in the FastPrep FP120 instrument (Qbiogene) using RNAqueous-4PCR kit (Ambion, cat # 1914) in combination with FastRNA green tubes (Qbiogene, cat.# 6040-600) at settings for time at 45 sec and speed at 6.5.1 ug of total RNA was used for reverse transcription using Retroscript kit (Ambion, cat# 1710). The mixture was incubated at 42° C. for 60 min, followed by 10 min at 92° C., and then chilled on ice and used in PCR reaction.
Relatively quantitative RT-PCR was used to analyze expression of MHC mRNA in rat musculus masseter (MM) and levator ani (LA). As an internal standard 18S ribosomal RNA was used (QuantumRNA classic 18S Internal Standard, Ambion, cat.# 1716). Linear range of PCR reaction for all primers as well as optimal ratio of 18S primers to competitors to achieve the same level of amplification as the genes of interest was determined.
Primers were obtained from IDT based on the recently published design (Wright et al., J. Appl. Phys. 1997;83:1389), with the following sequence: 5′[…]3′. […]
5 units of Taq DNA polymerase (Roche, cat# 1146165), 200 μM of each dNTP (Invitrogen, cat.#R725-01), 0.2 μM each MHC primer (IDT), 1 μl of cDNA from reverse transcription reaction and 4 μl of 18S primers: competitors mixture were used in 50 μl PCR reaction. […] PCR products were analyzed by agarose gel electrophoresis [20-μl aliquots of a 50-μl PCR reaction loaded on a 1.5% agarose gel (in 1× Tris-Acetate-EDTA buffer) containing 0.2 μg/ml ethidium bromide] to visualize the PCR products. […] Pictures were scanned and the volume of the optical density (OD) of a DNA band was determined by the Image Quant software (Molecular Dynamics), and the background was subtracted (so local background was directly proportional to the amount of DNA over a wide range). […] The content of each experimental group MHC gene was calculated as a percentage of the MHC value in the control group (Table 2).

Compound | 18 S band intensity (average intensity of all pixels in the spot) | II b/18 S
CC(=O)Nc1ccc(OC[C@](C)(O)C(=O)Nc2ccc([N+](=O)[O-])c(C(F)(F)F)c2)cc1 [Compound V] | 171 | –
CCC(=O)O[C@H]1CC[C@H]2[C@@H]3CCC4=CC(=O)CC[C@]4(C)[C@H]3CC[C@]12C [TP, testosterone propionate, reference compound] | 141 | 0.64
